Laboratory results taken from the supplement of paper PMC12823440, “Inhibitors supercharge kinase turnover through native proteolytic circuits” (Nature, 2025).
Structures can show the parent of a compound that is named as a salt. The list shows a part of the results. Hit calls seldom repeat between salt and free forms of one compound.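 Kinases were expressed as nanoluciferase fusions in K562 cells and luminescence was read every 4 h between 2 and 18 h as percent of control, DMSO set to 100% and a positive control to 0%. A time point counts as decreased when the signal drops significantly (2 sigma). The hit call is the authors' own, does not follow from the count of time points alone, and its rule is not shown.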

Protein sequences, listed by entry. Tags and fused reporters are not part of them. Lines headed by an entry give the natural chain unless they say otherwise; changes in a name come on top.
UniProt Q06187: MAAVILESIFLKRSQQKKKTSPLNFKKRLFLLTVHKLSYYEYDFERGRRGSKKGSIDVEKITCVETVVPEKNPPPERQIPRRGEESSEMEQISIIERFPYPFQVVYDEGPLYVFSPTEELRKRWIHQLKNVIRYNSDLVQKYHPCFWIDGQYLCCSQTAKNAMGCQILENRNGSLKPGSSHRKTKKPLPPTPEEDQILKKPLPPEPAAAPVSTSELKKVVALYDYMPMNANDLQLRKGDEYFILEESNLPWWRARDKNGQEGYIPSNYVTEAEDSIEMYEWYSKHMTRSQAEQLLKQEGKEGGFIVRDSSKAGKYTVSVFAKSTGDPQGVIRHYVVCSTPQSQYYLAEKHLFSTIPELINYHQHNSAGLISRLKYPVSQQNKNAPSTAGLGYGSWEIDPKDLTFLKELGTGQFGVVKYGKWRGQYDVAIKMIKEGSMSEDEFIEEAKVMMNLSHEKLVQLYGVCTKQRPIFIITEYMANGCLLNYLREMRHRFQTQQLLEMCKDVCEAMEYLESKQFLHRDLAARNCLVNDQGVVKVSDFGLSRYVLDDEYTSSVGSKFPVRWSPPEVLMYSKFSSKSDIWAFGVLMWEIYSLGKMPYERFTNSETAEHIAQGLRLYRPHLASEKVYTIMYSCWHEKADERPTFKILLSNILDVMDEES
UniProt Q9UQM7, whole entry: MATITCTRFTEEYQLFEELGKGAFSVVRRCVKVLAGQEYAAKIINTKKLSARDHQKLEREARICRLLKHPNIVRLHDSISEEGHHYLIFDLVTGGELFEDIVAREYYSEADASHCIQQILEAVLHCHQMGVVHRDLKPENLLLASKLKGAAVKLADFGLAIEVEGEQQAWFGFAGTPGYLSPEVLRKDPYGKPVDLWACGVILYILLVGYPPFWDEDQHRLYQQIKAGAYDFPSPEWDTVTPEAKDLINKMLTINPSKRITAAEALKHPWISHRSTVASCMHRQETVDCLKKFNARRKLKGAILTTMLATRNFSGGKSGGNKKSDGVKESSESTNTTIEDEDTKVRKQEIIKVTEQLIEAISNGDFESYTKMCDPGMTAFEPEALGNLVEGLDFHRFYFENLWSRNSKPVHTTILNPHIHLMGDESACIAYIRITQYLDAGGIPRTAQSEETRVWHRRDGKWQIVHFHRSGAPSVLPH
UniProt Q13555: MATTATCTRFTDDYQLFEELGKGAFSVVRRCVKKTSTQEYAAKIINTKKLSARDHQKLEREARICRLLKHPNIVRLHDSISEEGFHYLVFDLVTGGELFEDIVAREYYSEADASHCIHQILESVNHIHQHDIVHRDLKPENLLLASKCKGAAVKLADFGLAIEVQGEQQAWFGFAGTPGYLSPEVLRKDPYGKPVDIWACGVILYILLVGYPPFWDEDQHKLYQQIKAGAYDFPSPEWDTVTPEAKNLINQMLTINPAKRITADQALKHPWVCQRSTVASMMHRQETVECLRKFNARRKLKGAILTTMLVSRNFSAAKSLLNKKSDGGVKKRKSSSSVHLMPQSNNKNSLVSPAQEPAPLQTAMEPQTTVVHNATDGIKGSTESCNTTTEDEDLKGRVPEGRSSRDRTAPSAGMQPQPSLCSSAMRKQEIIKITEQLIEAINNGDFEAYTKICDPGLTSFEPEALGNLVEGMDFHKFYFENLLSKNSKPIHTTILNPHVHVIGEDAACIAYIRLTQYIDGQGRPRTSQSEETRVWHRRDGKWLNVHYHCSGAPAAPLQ
UniProt Q15131: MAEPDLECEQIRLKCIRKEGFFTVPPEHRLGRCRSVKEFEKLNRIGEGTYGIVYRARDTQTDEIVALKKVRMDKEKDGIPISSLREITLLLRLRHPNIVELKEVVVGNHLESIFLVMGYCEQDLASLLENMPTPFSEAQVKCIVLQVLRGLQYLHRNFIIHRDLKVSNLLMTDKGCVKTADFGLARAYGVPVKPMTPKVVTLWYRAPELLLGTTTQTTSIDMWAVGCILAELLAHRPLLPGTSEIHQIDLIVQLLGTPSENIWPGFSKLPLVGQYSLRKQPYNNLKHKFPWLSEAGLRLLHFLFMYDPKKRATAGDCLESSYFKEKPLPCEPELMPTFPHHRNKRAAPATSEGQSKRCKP
UniProt Q00526: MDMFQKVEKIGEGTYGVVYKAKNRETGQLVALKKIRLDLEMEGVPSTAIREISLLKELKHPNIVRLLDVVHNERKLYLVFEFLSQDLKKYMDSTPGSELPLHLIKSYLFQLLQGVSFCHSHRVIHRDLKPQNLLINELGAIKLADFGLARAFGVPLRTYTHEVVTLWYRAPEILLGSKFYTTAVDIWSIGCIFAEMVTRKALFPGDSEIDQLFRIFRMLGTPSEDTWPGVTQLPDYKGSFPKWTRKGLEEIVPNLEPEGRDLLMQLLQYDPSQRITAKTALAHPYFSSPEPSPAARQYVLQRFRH
UniProt P11802: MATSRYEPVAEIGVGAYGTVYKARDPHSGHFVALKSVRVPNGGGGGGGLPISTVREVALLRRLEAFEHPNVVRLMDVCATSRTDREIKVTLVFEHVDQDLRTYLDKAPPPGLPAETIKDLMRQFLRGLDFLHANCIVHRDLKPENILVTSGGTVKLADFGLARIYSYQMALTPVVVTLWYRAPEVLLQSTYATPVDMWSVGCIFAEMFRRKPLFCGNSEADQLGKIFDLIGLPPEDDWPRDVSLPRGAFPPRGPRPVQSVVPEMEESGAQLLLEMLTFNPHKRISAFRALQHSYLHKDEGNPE
UniProt Q00535, whole entry, looked up: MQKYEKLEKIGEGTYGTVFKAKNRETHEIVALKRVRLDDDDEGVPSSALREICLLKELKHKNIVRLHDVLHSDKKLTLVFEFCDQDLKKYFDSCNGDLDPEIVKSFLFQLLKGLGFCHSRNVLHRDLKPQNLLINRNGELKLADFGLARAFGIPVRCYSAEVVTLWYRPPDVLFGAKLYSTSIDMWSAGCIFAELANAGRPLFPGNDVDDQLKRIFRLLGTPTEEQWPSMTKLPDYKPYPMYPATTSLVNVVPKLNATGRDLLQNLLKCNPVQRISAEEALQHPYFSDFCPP
UniProt Q00534, whole entry: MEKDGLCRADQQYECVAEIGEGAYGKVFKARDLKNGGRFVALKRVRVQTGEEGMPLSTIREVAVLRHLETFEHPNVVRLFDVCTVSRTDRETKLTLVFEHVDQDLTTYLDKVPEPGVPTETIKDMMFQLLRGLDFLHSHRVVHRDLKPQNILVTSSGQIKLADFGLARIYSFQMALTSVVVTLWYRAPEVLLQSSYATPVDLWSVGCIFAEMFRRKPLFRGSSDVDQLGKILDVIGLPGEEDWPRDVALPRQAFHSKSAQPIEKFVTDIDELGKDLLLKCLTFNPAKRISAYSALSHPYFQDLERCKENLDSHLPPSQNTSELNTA

Key:
Assay in all cases: kinase-Nluc reporter destabilization hit call (1 = scored as downregulated) (binary); higher = compound decreases kinase abundance
Settings in all cases: K562; 2-18 h
[1] = tested on: BRAF_V600E
[2] = target: BTK (UniProt Q06187)
[3] = target: CAMK2A (UniProt Q9UQM7)
[4] = target: CAMK2G (UniProt Q13555)
[5] = target: CDK10 (UniProt Q15131)
[6] = target: CDK2 (UniProt P24941)
[7] = target: CDK3 (UniProt Q00526)
[8] = target: CDK4 (UniProt P11802)
[9] = target: CDK5 (UniProt Q00535)
[10] = target: CDK6 (UniProt Q00534)

Measured: kinase-Nluc reporter destabilization hit call

CCOC(=O)C1=C[C@]2(CC)CCCN3CCc4c(n1c1ccccc41)[C@@H]32 [Vinpocetine] (10 µM)
inactive: [1] 0 | [2] 0 | [3] 0 | [4] 0 | [5] 0 | [6] 0 | [7] 0 | [8] 0 | [9] 0 | [10] 0

CCCC[C@H](CO)Nc1nc(NC)ncc1OC [Interferon receptor inducer-1] (10 µM)
inactive: [1] 0 | [2] 0 | [3] 0 | [4] 0 | [5] 0 | [6] 0 | [7] 0 | [8] 0 | [9] 0 | [10] 0

O=C1c2c(O)cc(O)cc2O[C@H](c2cc(O)c(O)c(O)c2)[C@H]1O [Dihydromyricetin] (10 µM)
inactive: [1] 0 | [2] 0 | [3] 0 | [4] 0 | [5] 0 | [6] 0 | [7] 0 | [8] 0 | [9] 0 | [10] 0

CCCCNc1ncc2c(-c3ccc(CN4CCN(C)CC4)cc3)cn([C@H]3CC[C@H](O)CC3)c2n1 [UNC2025 (hydrochloride)] (2.5 µM)
inactive: [1] 0 | [2] 0 | [3] 0 | [4] 0 | [5] 0 | [6] 0 | [7] 0 | [8] 0 | [9] 0 | [10] 0

O=C(N=c1sccn1Cc1ccccc1)c1c[nH]c2ncccc12 (10 µM)
inactive: [1] 0 | [2] 0 | [3] 0 | [4] 0 | [5] 0 | [6] 0 | [7] 0 | [8] 0 | [9] 0 | [10] 0

CN(C/C=C/C(=O)Nc1ccc(C(=O)Nc2cccc(Nc3ncc(Cl)c(-c4c[nH]c5ccccc45)n3)c2)cc1)CCCNC(=O)NCCOCCOCCOCCNC(=O)CCCC[C@@H]1SC[C@@H]2NC(=O)N[C@@H]21 (2.5 µM)
inactive: [1] 0 | [2] 0 | [3] 0 | [4] 0 | [5] 0 | [6] 0 | [7] 0 | [8] 0 | [9] 0 | [10] 0

CC(C)(C)S(=O)(=O)c1cc2c(Nc3ccc4scnc4c3)ccnc2cc1OCCOCCOCCOCCOCC(=O)Nc1cccc2c1CN(C1CCC(=O)NC1=O)C2=O (stereo not given) [PROTAC RIPK degrader-6] (10 µM)
inactive: [1] 0 | [2] 0 | [3] 0 | [4] 0 | [5] 0 | [6] 0 | [7] 0 | [8] 0 | [9] 0 | [10] 0

C[C@@H](N)COc1ccc(-c2cnc3ccc(N[C@H](C)c4cccc(F)c4)nn23)cc1 [Taletrectinib] (2.5 µM)
inactive: [1] 0 | [2] 0 | [3] 0 | [4] 0 | [5] 0 | [6] 0 | [7] 0 | [8] 0 | [9] 0 | [10] 0

COc1cc(Nc2nc3ccccc3nc2NS(=O)(=O)c2ccc(NC(=O)c3ccc(C)c(OC)c3)cc2)cc(OC)c1 (10 µM)
inactive: [1] 0 | [2] 0 | [3] 0 | [4] 0 | [5] 0 | [6] 0 | [7] 0 | [8] 0 | [9] 0 | [10] 0

C=CC(=O)N1CCC[C@@H](n2c(=O)n(-c3ccc(Oc4ccccc4)cc3)c3c(N)nccc32)C1 [Tolebrutinib] (10 µM)
inactive: [1] 0 | [2] 0 | [3] 0 | [4] 0 | [5] 0 | [6] 0 | [7] 0 | [8] 0 | [9] 0 | [10] 0

Cc1c(C(=O)Nc2ccc(Oc3ccnc4cc(OCC(C)(C)O)ccc34)c(F)c2)c(=O)n(-c2ccccc2)n1C [Ningetinib Tosylate] (10 µM)
inactive: [1] 0 | [2] 0 | [3] 0 | [4] 0 | [5] 0 | [6] 0 | [7] 0 | [8] 0 | [9] 0 | [10] 0

CC(C)(O)c1cc(Nc2cc(Oc3cn(C4CC4)nc3C3CCOCC3)ccn2)ccn1 (10 µM)
inactive: [1] 0 | [2] 0 | [3] 0 | [4] 0 | [5] 0 | [6] 0 | [7] 0 | [8] 0 | [9] 0 | [10] 0

COC[C@H]1Cn2cc(-c3nc(Nc4ccnn4C)ncc3C)nc2C(=O)N1Cc1ccc(F)c(F)c1 (10 µM)
inactive: [1] 0 | [2] 0 | [3] 0 | [4] 0 | [5] 0 | [6] 0 | [7] 0 | [8] 0 | [9] 0 | [10] 0

2 compounds picked at random from those above, as already listed:
C[C@@H](N)COc1ccc(-c2cnc3ccc(N[C@H](C)c4cccc(F)c4)nn23)cc1 [Taletrectinib] (2.5 µM)
inactive: [1] 0 | [2] 0 | [3] 0 | [4] 0 | [5] 0 | [6] 0 | [7] 0 | [8] 0 | [9] 0 | [10] 0

C=CC(=O)N1CCC[C@@H](n2c(=O)n(-c3ccc(Oc4ccccc4)cc3)c3c(N)nccc32)C1 [Tolebrutinib] (10 µM)
inactive: [1] 0 | [2] 0 | [3] 0 | [4] 0 | [5] 0 | [6] 0 | [7] 0 | [8] 0 | [9] 0 | [10] 0

Continued.

O=C(Nc1cc(Cl)cc(Cl)c1)Nc1cc(Cl)cc(Cl)c1 (10 µM)
inactive: [1] 0 | [2] 0 | [3] 0 | [4] 0 | [5] 0 | [6] 0 | [7] 0 | [8] 0 | [9] 0 | [10] 0

CC1=C(C(=O)Nc2ccc3[nH]ncc3c2)C(c2ccc(F)c(C(=O)NCc3ccccn3)c2)NC(=O)N1 (stereo not given) (10 µM)
inactive: [1] 0 | [2] 0 | [3] 0 | [4] 0 | [5] 0 | [6] 0 | [7] 0 | [8] 0 | [9] 0 | [10] 0

CC(C)n1nc(C#Cc2ccccc2)c2c(N)ncnc21 (10 µM)
inactive: [1] 0 | [2] 0 | [3] 0 | [4] 0 | [5] 0 | [6] 0 | [7] 0 | [8] 0 | [9] 0 | [10] 0

COc1cccc(Nc2ncnn3ccc(CN4CC[C@@H](N)[C@H](O)C4)c23)c1 (2.5 µM)
inactive: [1] 0 | [2] 0 | [3] 0 | [4] 0 | [5] 0 | [6] 0 | [7] 0 | [8] 0 | [9] 0 | [10] 0

O=C(O)[C@]1(Cc2cccc(Nc3nccs3)n2)CC[C@@H](Oc2cccc(Cl)c2F)CC1 (2.5 µM)
inactive: [1] 0 | [2] 0 | [3] 0 | [4] 0 | [5] 0 | [6] 0 | [7] 0 | [8] 0 | [9] 0 | [10] 0

N#Cc1cn([C@@H]2O[C@H](CO)[C@@H](O)[C@H]2O)c2nc[nH]c(=O)c12 [Jaspamycin] (10 µM)
inactive: [1] 0 | [2] 0 | [3] 0 | [4] 0 | [5] 0 | [6] 0 | [7] 0 | [8] 0 | [9] 0 | [10] 0

COc1ccc2c(c1)C[C@H](C(=O)Nc1ccc(-c3cn[nH]c3)cc1OCCN(C)C)CO2 [Chroman 1] (10 µM)
inactive: [1] 0 | [2] 0 | [3] 0 | [4] 0 | [5] 0 | [6] 0 | [7] 0 | [8] 0 | [9] 0 | [10] 0

CC(=O)c1cc(O)ccc1O [2,5-Dihydroxyacetophenone] (10 µM)
inactive: [1] 0 | [2] 0 | [3] 0 | [4] 0 | [5] 0 | [6] 0 | [7] 0 | [8] 0 | [9] 0 | [10] 0

Cn1cc(-c2cn3nccc3c(-c3cnn([C@]4(CC#N)C[C@@H](C#N)C4)c3)n2)cn1 (10 µM)
inactive: [1] 0 | [2] 0 | [3] 0 | [4] 0 | [5] 0 | [6] 0 | [7] 0 | [8] 0 | [9] 0 | [10] 0

C[C@@H]1CN(Cc2cn[nH]c2-c2ccc(C#N)cc2)CCN1c1ccc(C(F)(F)F)cn1 (2.5 µM)
inactive: [1] 0 | [2] 0 | [3] 0 | [4] 0 | [5] 0 | [6] 0 | [7] 0 | [8] 0 | [9] 0 | [10] 0

Cc1ccc(CNC(=O)N2CCC[C@]3(CCN(Cc4ccc(Cl)c(Cl)c4)C3)C2)cc1 (10 µM)
inactive: [1] 0 | [2] 0 | [3] 0 | [4] 0 | [5] 0 | [6] 0 | [7] 0 | [8] 0 | [9] 0 | [10] 0

C=CC(=O)Nc1cccc(Nc2nc(Nc3ccc(Oc4ccnc(C(=O)NC)c4)cc3)ncc2F)c1 (2.5 µM)
inactive: [1] 0 | [2] 0 | [3] 0 | [4] 0 | [5] 0 | [6] 0 | [7] 0 | [8] 0 | [9] 0 | [10] 0

O=c1cc(N2CCOCC2)oc2c1ccc1ccccc12 (2 µM)
inactive: [1] 0 | [2] 0 | [3] 0 | [4] 0 | [5] 0 | [6] 0 | [7] 0 | [8] 0 | [9] 0 | [10] 0
